Tested on: CHO cell fed-batch cultures
Test: LC-HRMS relative quantification (peak area) of metabolites in N-1 CHO cell culture
Parameters: species or system Chinese hamster

SMILES	LC-HRMS peak area (Day 2, N-1 stage)	LC-HRMS peak area (Day 4, N-1 stage)	LC-HRMS peak area (Day 7, N-1 stage)
O=C(O)C(O)Cc1ccc(O)cc1 (stereo not drawn) [4-Hydroxyphenyllactic acid, 4-hydroxyphenyllactic acid]	2.4E+05	1.3E+06	2.1E+06
O=C(O)C(O)Cc1ccccc1 (stereo not drawn) [Phenyllactic acid, phenyllactic acid]	3.9E+05	3.0E+06	5.1E+06
